Among all 340,000 compounds or so, about 170 (0.05%) were called active. The shares of active, inactive and inconclusive entries below differ from those in the screen. The call rests on the fitted dose curve; in most records, active means well fitted inhibition curve with a large enough effect in the signal ratio, with a control signal flat (not every such curve was filed as active); inconclusive means small, poorly fitted or top-dose-only effect, or effect the other way, or a change in a side signal; inactive means flat fitted curve, though single readings scatter; the % refers to the signal ratio. Where the call is inconclusive, the potency comes from a doubtful curve fit.
Test: qHTS Assay to Find Inhibitors of Chronic Active B-Cell Receptor Signaling;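 on activity change, negative = inhibition: plate controls were basal doxycycline-induced cells for no effect and cells given 10 µM MG132 for full effect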
Details: ABC-DLBCL IkBa-CBG/CBR reporter, luminescence ratio (green luciferase fused to IkBa over red control in TMD8 lymphoma cells), 4 h; activity change, negative = inhibition: at 46.1 µM (top of the series)
In short: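 Concentration-response series (up to 46 uM) were applied to TMD8 dual-reporter cells for 4 h at 37C with doxycycline. Green/red ratio, after filter-overlap correction, defined %Activity; red signal alone was normalised to basal cells and zero luminescence.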
Potency means the concentration at half of the fitted maximal effect.

| SMILES | activity change, negative = inhibition | Potency |
| --- | --- | --- |
| O=c1c2ccccc2ncn1-c1ccccc1[N+](=O)[O-] | inactive: -14% | – |
| CC(C)Cc1ccccc1S(N)(=O)=O | inactive: 1.56% | – |
| COc1ccc(Cn2nnnc2C(c2ccc(N(C)C)cc2)N2CCC(C(N)=O)CC2)cc1 (stereo unspecified) | inactive: -3.86% | – |
| Cc1ccc(NC(=O)c2ccccc2-c2ccccc2C(=O)O)cc1C | inconclusive: 3.74% | – |
| COc1ccc(CC(=O)N(c2ccccc2)c2nc(C)cs2)cc1 | – | inconclusive: 23.1 µM [falling, single point] |
| CC(=O)Nc1nc(-c2ccc3c(c2)CCN3C(=O)C2CC2)c(C)s1 | inactive: -9.19% | – |
| Cc1ccc(C(=O)N2CCc3ccccc32)cc1 | – | inconclusive: 6.51 µM [falling, single point] |
| O=S1(=O)c2cccc3cccc(c23)N1Cc1ccc(-c2nnco2)cc1 | – | inconclusive: 5.8 µM [falling, partial curve, poor fit] |
| CCc1ccnc(NS(=O)(=O)c2ccc3c(c2)OCCO3)c1 | – | inconclusive: 3.98 µM [falling, partial curve, poor fit] |
| C/C(=N\NC(=O)C1=NNC(=O)C1C)c1cccs1 (stereo unspecified) | – | inconclusive: 31.6 µM [rising, partial curve] |
| CC(=O)N/C(=N\c1nc(C)cc(C)n1)Nc1ccc2ccccc2c1 | inconclusive: 0.178% | – |
| CNC(C)C#Cc1ccc2oc3cccc(OC)c3c(=O)c2c1 (stereo unspecified) | – | inconclusive: 0.447 µM [rising, full curve] |
| CC1(C)CC(=O)C(C(=O)CCCCC(=O)C2C(=O)CC(C)(C)CC2=O)C(=O)C1 | inconclusive: -4.62% | – |
| Cc1ccccc1N1CCN(C2CCCN(C(=O)CCc3c(C)noc3C)C2)CC1 (stereo unspecified) | inconclusive: 1.35% | – |
| Cc1cc(C)cc(N2CC(C(=O)NC3CCCCC3)CC2=O)c1 (stereo unspecified) | inactive: 0.175% | – |
| COc1ccccc1C(=O)Nc1ccc(C(=O)O)cc1 | inconclusive: 319% | – |
| O=C(N/N=C/c1cc2cc3c(cc2nc1Cl)OCCO3)c1ccccc1O | – | inconclusive: 14.6 µM [falling, partial curve] |
| Cc1ccc(SCCSc2nc(N)cc(=O)[nH]2)cc1 | inconclusive: -11.5% | – |
| COc1ccc(CCNC(=O)CCNS(=O)(=O)c2ccc3c(c2)CCN3C(C)=O)cc1OC | inconclusive: -4.46% | – |
| CC(C)=CCN1CCN(Cc2cnc(N3CCOCC3)s2)CC1CCO (stereo unspecified) | inconclusive: 24.4% | – |
| N#C/C(=C(/O)COC(=O)COc1ccc(Cl)cc1)c1nc2ccccc2[nH]1 | – | inconclusive: 20.6 µM [falling, single point] |

| SMILES | activity change, negative = inhibition | Potency |
| --- | --- | --- |
| CC(=O)/C(N=Nc1ccc2c(c1)OCCO2)=C(\C)O | – | inconclusive: 15.8 µM [falling, partial curve, poor fit] |
| C=CCCC(=O)NC1CC(C)(C)Cc2c1cnn2-c1cccc(F)c1 (stereo unspecified) | inconclusive: 10.2% | – |
| COc1ccc(C(=O)O)cc1S(=O)(=O)N1CCSCC1 | inactive: -2.82% | – |
| Cn1c(SCC(=O)N(C2CCCCC2)C2CCCCC2)nnc1-c1cccs1 | – | inconclusive: 0.00461 µM [falling, full curve, poor fit] |
| CCn1c2ccc(F)cc2c2nc3ccccc3nc21 | – | inconclusive: 3.98 µM [rising, partial curve, poor fit] |
| Cc1ccc(NC(=O)c2oc3ccc(S(=O)(=O)N4CCCCCC4)cc3c2C)c(C)c1 | inconclusive: 8.29% | – |
| COc1ccc(N2CCN(C(=O)c3cc4c(C)nc5ccccc5c4o3)CC2)cc1 | inconclusive: 0.44% | – |
| CC(C)(C)C(=O)N(Cc1ccccc1)c1ccccn1 | inconclusive: -2.69% | – |
| COc1ccccc1NC(=O)C1CCCN(S(=O)(=O)c2cnc[nH]2)C1 (stereo unspecified) | inconclusive: -7.16% | – |
| Cc1ccc(C)c(SCC(=O)NC(=O)NC2CCCC2)c1 | inconclusive: -4.26% | – |
| Cc1ccccc1NS(=O)(=O)c1ccc2[nH]cc(C(=O)NC3CCCCC3)c(=O)c2c1 | inconclusive: 7.96% | – |
| O=C(N/N=C/c1ccccc1[N+](=O)[O-])c1ccc2c(c1)OCCO2 | inactive: -0.588% | – |
| COc1cccc(-c2nc(SCC(=O)Nc3nc(-c4ccccc4)c(C)s3)[nH]c(=O)c2C#N)c1 | inactive: 0.417% | – |
| CCOc1ccc2nc(NC(=O)c3cccnc3)sc2c1 | inconclusive: -1.07% | – |
| CC(=O)Cc1cc(O)c2ccccc2c1OC(=O)c1ccccc1 | – | inconclusive: 17.8 µM [falling, single point] |
| Cc1ccnc(NC(=O)c2ccc([N+](=O)[O-])s2)c1 | inconclusive: -11.4% | – |
| Cc1ccc(NC(=O)COS(=O)c2ccc(C)cc2)cc1 (stereo unspecified) | inconclusive: -3.34% | – |
| CCN(CC)C(=O)[C@H]1C[C@H](CC(=O)NCc2ccc(OC)c(OC)c2)C(=O)N2CCc3c([nH]c4cc(CCC(=O)N(C)C)ccc34)[C@]12C | inconclusive: -1.28% | – |
| CCN(CC(=O)Nc1c(F)cccc1F)C(=O)/C=C/c1ccc2ccccc2n1 | inactive: -0.563% | – |
| CCOC(=O)N1CCC(NC(=O)Cn2ncc3c4ccccc4n(C)c3c2=O)CC1 | inconclusive: 10.4% | – |
| O=C(COC(=O)/C=C/c1cccs1)Nc1nc(-c2ccccc2)cs1 | inconclusive: -4.07% | – |

| SMILES | activity change, negative = inhibition | Potency |
| --- | --- | --- |
| Cc1c(NC(=O)C(C)N(c2ccccc2)S(C)(=O)=O)c(=O)n(-c2ccccc2)n1C (stereo unspecified) | inconclusive: 3.79% | – |
| CCOC(=O)C1C(=O)OC(C)(C)C1C(C)C(=O)c1ccc(C)cc1 (stereo unspecified) | – | inconclusive: 3.16 µM [falling, single point] |
| CC1=CC(C)(C)NC(=S)N1C(C)c1ccccc1 (stereo unspecified) | inactive: 2.95% | – |
| COc1ccccc1CNC(=O)C1CC(c2cccc([N+](=O)[O-])c2)=NO1 (stereo unspecified) | inconclusive: -3.63% | – |
| O=C(COc1ccccc1[N+](=O)[O-])N/N=C/c1ccc[nH]1 | inconclusive: 4.55% | – |
| Nc1nc(Cl)cc(Nc2ccccc2Cl)n1 | – | inconclusive: 12.6 µM [falling, partial curve] |
| CC1(C)CC(=O)/C(=C(/O)Cc2ccccc2)C(=NCCc2ccccc2)C1 | inconclusive: 1.04% | – |
| CCc1cc(C(=O)NNC(=O)c2csc(N3CCOCC3)n2)sc1C | – | inconclusive: 29.1 µM [falling, single point] |
| CCC1Oc2ccccc2N(CC(=O)NCCCN2CCCCC2CC)C1=O (stereo unspecified) | inconclusive: -2.21% | – |
| COc1ccc(NC(=O)CSc2n[nH]c(N)n2)c([N+](=O)[O-])c1 | inactive: -9.23% | – |
| CN(CCC(=O)Nc1ccc2c(c1)OCO2)Cc1ccccc1 | inactive: 0.945% | – |
| Cc1ccc(-c2nc(-c3ccccn3)no2)cc1[N+](=O)[O-] | – | inconclusive: 15.8 µM [falling, partial curve] |
| CCCc1nc2ccccc2n1CC(O)COc1ccc(NC(C)=O)cc1 (stereo unspecified) | inconclusive: 1.65% | – |
| O=C(NCCN1CCN(c2ccccc2)CC1)C1(S(=O)(=O)c2ccc(Cl)cc2)CC1 | inactive: 6.38% | – |
| CC1Cc2cc(/C(O)=C3/C(=O)C(=O)N(CCCn4ccnc4)C3c3ccco3)ccc2O1 (stereo unspecified) | inconclusive: 10.5% | – |
| O=C(NCCc1ccc(F)cc1)c1cc([N+](=O)[O-])ccc1N1CCOCC1 | inactive: 10.5% | – |
| O=C(CCCc1ccccc1)NCc1ccc(Cl)cc1 | inconclusive: 2.02% | – |
| CNC(=S)N1N=C(c2ccc(Br)cc2)CC1c1ccc(N(C)C)cc1 (stereo unspecified) | inactive: 0.985% | – |
| CC1CCCC(NC(=O)COC(=O)c2cc(=O)[nH]c3ccccc23)C1C (stereo unspecified) | inactive: 3.47% | – |
| COc1ccc(C(=O)OC(C)C(=O)NCC2CCCCC2)cc1S(=O)(=O)N1CCOCC1 (stereo unspecified) | inconclusive: 3.1% | – |
| Cc1onc(-c2ccccc2)c1C(=O)Nc1nnc(C(C)C)s1 | inactive: -5.24% | – |

Reformatted as labelled records: part of the list above.
Cc1ccc(C(=O)N2CCc3ccccc32)cc1
  Potency: inconclusive: 6.51 µM [falling, single point]
N#C/C(=C(/O)COC(=O)COc1ccc(Cl)cc1)c1nc2ccccc2[nH]1
  Potency: inconclusive: 20.6 µM [falling, single point]
COc1ccc(C(=O)O)cc1S(=O)(=O)N1CCSCC1
  activity change, negative = inhibition: inactive: -2.82%
Cc1ccccc1NS(=O)(=O)c1ccc2[nH]cc(C(=O)NC3CCCCC3)c(=O)c2c1
  activity change, negative = inhibition: inconclusive: 7.96%

Next records follow:

| SMILES | activity change, negative = inhibition | Potency |
| --- | --- | --- |
| O=C(CCc1ccccc1)NC(=S)Nc1ccccc1Br | inactive: -0.188% | – |
| O=C(NCc1cccnc1)c1cccc(Cl)c1 | inconclusive: 6.81% | – |
| Oc1c(Cl)cc(Cl)cc1/C=N/c1nccs1 | inconclusive: -1.1% | – |
| Cc1sc(NC(=O)C2CCCCC2)c(C#N)c1-c1ccccc1 | inconclusive: -5.65% | – |
| Cc1cc(C)n(-c2ccc3cccc(NS(C)(=O)=O)c3n2)n1 | inactive: -4.57% | – |
| Cc1cc(C)cc(C(=O)NC(CC(N)=O)c2ccc(NCC3CC3)c([N+](=O)[O-])c2)c1 (stereo unspecified) | – | inconclusive: 0.0891 µM [falling, full curve, poor fit] |
| C(=N\Nc1nc2ccccc2[nH]1)/c1cccc2cccnc12 | – | inconclusive: 4.47 µM [falling, partial curve, poor fit] |
| COc1ccc(/C=N\NC(=O)c2cc3c(ccc4ccccc43)o2)cc1O | – | inconclusive: 17.8 µM [falling, partial curve] |
| NC(=O)c1cc(Cl)ccc1OCC(=O)Nc1ccc2c(c1)OCO2 | inconclusive: 2.69% | – |
| CN(C(=O)Cn1cnc2sccc2c1=O)C1CCCCC1 | inconclusive: 1.39% | – |
| N#CC(=C1CCCC1)c1nc(-c2ccc(Cl)cc2)cs1 | inconclusive: 6.91% | – |
| Cc1cccc(-c2oc3ccccc3c2-c2ccc3c(c2)OCO3)c1 | – | inconclusive: 0.562 µM [rising, full curve] |
| COc1cc(C2CC(c3c(C)cc(C)[nH]c3=O)=NN2c2ccccc2F)cc(OC)c1OC (stereo unspecified) | – | inconclusive: 15.8 µM [falling, partial curve, poor fit] |
| O=C(Nc1cccc(S(=O)(=O)N2CCOCC2)c1)c1cn(-c2ccccc2)nc1-c1ccccc1 | inconclusive: -0.971% | – |
| O=C(O)c1ccc(N/N=C/c2ccc(-c3cccc(Cl)c3)o2)cc1 | inconclusive: -78.6% | – |
| Cc1ccc(/C=N/NC(=O)CSc2nc3ccccc3o2)cc1 | inconclusive: 0.177% | – |
| CCc1ccc(NC(=O)CSc2nnc(COc3ccc4c(c3)CCCC4)o2)cc1 | inconclusive: 12% | – |
| Cn1cc(C(=O)c2ccc(Cl)cc2Cl)cc1C(=O)N/N=C(\N)COc1ccc(F)cc1 | inactive: 28.4% | – |

From PubChem BioAssay AID493014 (National Center for Advancing Translational Sciences (NCATS), 2011)
